According to publication PMC5356443, “Structural, mechanistic and functional insight into gliotoxin bis-thiomethylation in Aspergillus fumigatus” (Open Biology, 2017):
These are yes or no findings as the source states them, for the method shown.

Sequences of proteins named here, by UniProt entry; tags and fusion partners are left off.
UniProt Q4X158: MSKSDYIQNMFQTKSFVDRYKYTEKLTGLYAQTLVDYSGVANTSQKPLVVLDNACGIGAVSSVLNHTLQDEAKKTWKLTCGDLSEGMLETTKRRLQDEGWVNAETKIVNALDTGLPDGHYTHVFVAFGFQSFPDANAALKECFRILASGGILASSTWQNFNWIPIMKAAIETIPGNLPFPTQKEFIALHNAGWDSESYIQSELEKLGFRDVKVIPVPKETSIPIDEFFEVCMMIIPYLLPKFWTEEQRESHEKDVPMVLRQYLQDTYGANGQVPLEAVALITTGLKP

Key:
[1] = biological target: gliotoxin thiomethyltransferase A (GtmA) (Aspergillus fumigatus) (UniProt Q4X158); experiment: SEC; size exclusion chromatography of purified GtmA (electronic supplementary figure S1); conditions of this run not given; both purified
[2] = biological target: gliotoxin thiomethyltransferase A (GtmA) (Aspergillus fumigatus) (UniProt Q4X158); experiment: crystal structure; GtmA-SAH complex, space group P2_(1), two monomers in the asymmetric unit; dimer assessed with PDBePISA; 1.33 Å; both purified

For “gliotoxin thiomethyltransferase A (GtmA) (from UniProt Q4X158 1-287) (enzyme)”, the binding [1] was “no binding” and the binding [2] was “no binding”.
